Measurements reported in PubChem BioAssay AID493014 (National Center for Advancing Translational Sciences (NCATS), 2011).
The other results are listed elsewhere or left out. The main result of the screen is listed elsewhere. These columns were measured beside it and carry no call. Most of these compounds were active or inconclusive in the main read-out, so they are no random draw. Words in brackets tell the shape of the fitted curve; partial curves, single points and poor fits give uncertain potencies.

Test: qHTS Assay to Find Inhibitors of Chronic Active B-Cell Receptor Signaling
Conditions: ABC-DLBCL IkBa-CBG/CBR reporter, luminescence ratio (green luciferase fused to IkBa over red control in TMD8 lymphoma cells), 4 h
How it was run: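 TMD8 human ABC-DLBCL cells with doxycycline-inducible IκBα–green luciferase fusion and unfused red luciferase, in 0.5% FBS medium; compounds up to 46 uM, 4 h at 37C. Green/red luminescence ratio, filter-overlap corrected, fitted to concentration-response curves.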

[1] = measured here: CBR red luminescence, cell number
[2] = measured here: IkBa-CBG green luminescence

SMILES: CCN(CC)c1ccc2c(Cl)c(Br)c(=O)oc2c1
- AC50 [1]: 35.5 µM [falling, single point]
- AC50 [2]: 22.4 µM [rising, partial curve, poor fit]

SMILES: Cc1sc(NC(=O)C2=COCCO2)c(C#N)c1C
- AC50 [1]: 8.2 µM [rising, partial curve, poor fit]

SMILES: COC(=O)c1ccc(Cn2cc(Cl)cn2)cc1
- AC50 [1]: 10 µM [rising, partial curve]

SMILES: c1ccc(OCc2nc3ccccc3[nH]2)cc1
- AC50 [1]: 16.4 µM [falling, single point]

SMILES: Cc1c(C(=O)N(Cc2ccccc2)C(C)C)oc2ccc(S(=O)(=O)N3CCOCC3)cc12
- AC50 [1]: 35.5 µM [falling, single point]

SMILES: COc1ccc(NC(=O)c2ccccc2NC(=O)c2ccco2)cc1
- AC50 [1]: 11.2 µM [falling, partial curve, poor fit]

SMILES: CC1=C(C#N)C(=O)N(C2CCS(=O)(=O)C2)C(=O)/C1=C\c1ccc(C)o1 (stereo not given)
- AC50 [1]: 1 µM [rising, full curve, poor fit]

SMILES: Nc1cccc2c1C(=O)N(CCOc1ccc(F)cc1)C2=O
- AC50 [1]: 0.794 µM [rising, full curve]

SMILES: Cc1ccc(-c2nn(-c3ccccc3)cc2C(N)=O)o1
- AC50 [1]: 7.94 µM [falling, partial curve]

SMILES: Cc1ccc(OCC(=O)NCCS(=O)(=O)N2CCN(c3ccccc3)CC2)cc1
- AC50 [1]: 0.146 µM [rising, full curve, poor fit]

SMILES: O=C(O)c1cccc(Nc2ncnc3sccc23)c1
- AC50 [1]: 5.62 µM [falling, partial curve]

SMILES: O=C(NC1CCCC1)c1cc2cc(Br)ccc2o1
- AC50 [1]: 10 µM [falling, partial curve]

SMILES: CCC(CO)[n+]1c(C)cc(/C=C2\Sc3ccccc3N2Cc2ccccc2)cc1C (stereo not given)
- AC50 [1]: 11.6 µM [falling, partial curve, poor fit]

SMILES: CN(c1ccccc1)S(=O)(=O)c1ccc(NC(=S)NC(=O)c2ccccc2)cc1
- AC50 [1]: 7.31 µM [falling, partial curve]

SMILES: CCc1nc(SCC(=O)NCCc2ccccc2)n[nH]1
- AC50 [1]: 32.6 µM [rising, single point]

SMILES: COC(=O)CSc1nc(N)c(C#N)c(CC(C)C)c1C#N
- AC50 [1]: 8.2 µM [falling, partial curve]

SMILES: O=C(Nc1cccc(C(=O)O)c1)Nc1ccccc1Cl
- AC50 [1]: 11.2 µM [falling, partial curve]

SMILES: O=S(=O)(/N=C(/Nc1ccc(Cl)c(S(=O)(=O)Nc2ccccc2Cl)c1)c1ccc(F)cc1)c1ccccc1
- AC50 [1]: 35.5 µM [falling, single point]

SMILES: O=C(Nc1nccs1)c1ccc2ccccc2c1
- AC50 [1]: 11.2 µM [falling, partial curve]

SMILES: CCCN(CCC)CC(=O)N1CC(=O)Nc2ccccc21
- AC50 [1]: 0.447 µM [rising, full curve, poor fit]

SMILES: O=C(Nc1ccccc1)c1ccccc1OCC(O)CN1C(=O)c2ccccc2S1(=O)=O (stereo not given)
- AC50 [1]: 3.55 µM [rising, single point]

SMILES: COc1ccc(NC(=O)c2ccc(S(=O)(=O)N3CCCCCC3)cc2)c(OC)c1
- AC50 [1]: 0.794 µM [rising, partial curve]

SMILES: CN1CCc2c(c3ccccc3n2C)C1
- AC50 [1]: 28.2 µM [falling, single point]

SMILES: COc1ccccc1-c1nnc(Nc2nc3c(OC)cccc3s2)o1
- AC50 [1]: 1.64 µM [falling, full curve]
- AC50 [2]: 2.59 µM [falling, full curve]

SMILES: Cc1ccc(SCC(=O)N2CCC(C(N)=O)CC2)cc1
- AC50 [1]: 7.94 µM [rising, partial curve]

SMILES: O=C(NCc1cccs1)Nc1ccc2c(c1)OCO2
- AC50 [1]: 9.2 µM [falling, partial curve]

SMILES: CCOC(=O)C1=C(C)NC(=O)NC1C (stereo not given)
- AC50 [1]: 29.1 µM [rising, single point]

SMILES: Cc1ccc(CCNC(=O)C2=CCN(S(=O)(=O)c3ccccc3)CC2)cc1
- AC50 [1]: 2.82 µM [falling, partial curve, poor fit]

SMILES: CCn1c(-c2ccccc2Cl)nn(CC(=O)Nc2cc(Cl)ccc2Cl)c1=S
- AC50 [1]: 20 µM [falling, partial curve]

SMILES: Cc1ccc(N2CC(C(=O)Nc3ccc4c(c3)OCO4)CC2=O)cc1 (stereo not given)
- AC50 [1]: 32.6 µM [rising, single point]

SMILES: CCCc1ccc(Oc2cc(Cl)nc(N)n2)cc1
- AC50 [1]: 2.31 µM [rising, full curve]

SMILES: O=[N+]([O-])c1ccc(CSc2nc3ccccc3o2)cc1
- AC50 [1]: 3.55 µM [rising, full curve]

SMILES: Cc1ccc(OCc2nc3ccccc3[nH]2)cc1
- AC50 [1]: 10.3 µM [falling, partial curve]

SMILES: O=C(Nn1cnnc1)c1cccc(S(=O)(=O)N2CCOCC2)c1
- AC50 [1]: 7.08 µM [falling, partial curve]

SMILES: Cc1ccccc1-c1nnn(CC(=O)NC(=O)NC2CCCC2)n1
- AC50 [1]: 20.6 µM [falling, partial curve, poor fit]

SMILES: O=C(NC(=S)NNC(=O)c1ccco1)c1ccc(F)cc1
- AC50 [1]: 10 µM [falling, single point]

SMILES: O=C(CSc1ccccc1)N[C@@H](Cc1ccccc1)C(=O)O
- AC50 [1]: 8.91 µM [rising, partial curve, poor fit]

SMILES: CC(C)(C)c1[nH]nc2c1C(c1ccco1)C(C#N)=C(N)O2 (stereo not given)
- AC50 [1]: 17.8 µM [falling, single point]

SMILES: C/C(=N\NC(=O)c1cc(-c2ccc(O)cc2)nc2ccccc12)c1cccnc1
- AC50 [1]: 3.98 µM [rising, full curve, poor fit]

SMILES: Cn1cc(C(=O)Nc2ccc(F)c(Cl)c2)cn1
- AC50 [1]: 13 µM [rising, partial curve, poor fit]

SMILES: O=C(c1ccco1)N1CCN(Cc2ccc(Cl)cc2)CC1
- AC50 [1]: 22.4 µM [rising, single point]

SMILES: COC(=O)C(NC(=O)c1ccccc1)(Nc1nc(C)cs1)C(F)(F)F (stereo not given)
- AC50 [1]: 11.2 µM [rising, partial curve, poor fit]

SMILES: C=CCc1cccc2cc(C(=O)NCc3cccnc3)c(=O)oc12
- AC50 [1]: 20.6 µM [rising, single point]
